PubChem BioAssay AID1508597 – Cure First | 2020
The deposit covers about 2,100 reagents; this is an unselected part. 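Calls flag viability under 80% in either arm, not effects specific to rucaparib; the reference for percent is not stated.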 Entries without a mark were called inactive. The record does not give: the 100% reference.

Test: 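Genes whose silencing sensitises or protects ovarian cancer cells against rucaparib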 (primary screen)
System: human ovarian carcinoma lines grown from tumours: OCI-P5x (papillary serous) and OCI-C5x (clear cell)
Knock-down reagent: siRNA pool against human genes, 1.25 pmol siRNA per well
Timing: 72 h or 96 h, depending on the cell culture
Treatment: rucaparib 20 µM (about IC30) or vehicle, present until read-out
Measurement: 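Luminescent ATP-based viability assay read 72 or 96 h after transfection, depending on culture, given as normalised percent viability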
Direction: viability, normalised: higher = more viable cells remaining
Call rule: 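Active when normalised viability falls below 80 percent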
Calls: active = viability under 80%; inactive = viability 80% or more

EYA1, rucaparib or vehicle Rucaparib, cell line OCI-C5x (clear cell), technical replicate 1 | viability, normalised (%) = 43.6 (active)
EYA1, rucaparib or vehicle Rucaparib, cell line OCI-C5x (clear cell), technical replicate 2 | viability, normalised (%) = 42.3 (active)
EYA1, rucaparib or vehicle Rucaparib, cell line OCI-C5x (clear cell), technical replicate 3 | viability, normalised (%) = 35.3 (active)
EYA1, rucaparib or vehicle Rucaparib, cell line OCI-P5x (serous), technical replicate 1 | viability, normalised (%) = 63.9 (active)
EYA1, rucaparib or vehicle Rucaparib, cell line OCI-P5x (serous), technical replicate 2 | viability, normalised (%) = 61 (active)
EYA1, rucaparib or vehicle Rucaparib, cell line OCI-P5x (serous), technical replicate 3 | viability, normalised (%) = 74.9 (active)
EYA1, rucaparib or vehicle Vehicle, cell line OCI-C5x (clear cell), technical replicate 1 | viability, normalised (%) = 41.4 (active)
EYA1, rucaparib or vehicle Vehicle, cell line OCI-C5x (clear cell), technical replicate 2 | viability, normalised (%) = 38.3 (active)
EYA1, rucaparib or vehicle Vehicle, cell line OCI-C5x (clear cell), technical replicate 3 | viability, normalised (%) = 56.3 (active)
EYA1, rucaparib or vehicle Vehicle, cell line OCI-P5x (serous), technical replicate 1 | viability, normalised (%) = 68.5 (active)
EYA1, rucaparib or vehicle Vehicle, cell line OCI-P5x (serous), technical replicate 2 | viability, normalised (%) = 74.2 (active)
EYA1, rucaparib or vehicle Vehicle, cell line OCI-P5x (serous), technical replicate 3 | viability, normalised (%) = 66.7 (active)
BCKDK, rucaparib or vehicle Rucaparib, cell line OCI-C5x (clear cell), technical replicate 1 | viability, normalised (%) = 45.6 (active)
BCKDK, rucaparib or vehicle Rucaparib, cell line OCI-C5x (clear cell), technical replicate 2 | viability, normalised (%) = 54.2 (active)
BCKDK, rucaparib or vehicle Rucaparib, cell line OCI-C5x (clear cell), technical replicate 3 | viability, normalised (%) = 54.1 (active)
BCKDK, rucaparib or vehicle Rucaparib, cell line OCI-P5x (serous), technical replicate 1 | viability, normalised (%) = 51.5 (active)
BCKDK, rucaparib or vehicle Rucaparib, cell line OCI-P5x (serous), technical replicate 2 | viability, normalised (%) = 65.5 (active)
BCKDK, rucaparib or vehicle Rucaparib, cell line OCI-P5x (serous), technical replicate 3 | viability, normalised (%) = 75.4 (active)
BCKDK, rucaparib or vehicle Vehicle, cell line OCI-C5x (clear cell), technical replicate 1 | viability, normalised (%) = 57.9 (active)
BCKDK, rucaparib or vehicle Vehicle, cell line OCI-C5x (clear cell), technical replicate 2 | viability, normalised (%) = 53.1 (active)
BCKDK, rucaparib or vehicle Vehicle, cell line OCI-C5x (clear cell), technical replicate 3 | viability, normalised (%) = 42.6 (active)
BCKDK, rucaparib or vehicle Vehicle, cell line OCI-P5x (serous), technical replicate 1 | viability, normalised (%) = 61.2 (active)
BCKDK, rucaparib or vehicle Vehicle, cell line OCI-P5x (serous), technical replicate 2 | viability, normalised (%) = 58 (active)
BCKDK, rucaparib or vehicle Vehicle, cell line OCI-P5x (serous), technical replicate 3 | viability, normalised (%) = 68.5 (active)
MIER1, rucaparib or vehicle Rucaparib, cell line OCI-C5x (clear cell), technical replicate 1 | viability, normalised (%) = 40.9 (active)
MIER1, rucaparib or vehicle Rucaparib, cell line OCI-C5x (clear cell), technical replicate 2 | viability, normalised (%) = 52.5 (active)
MIER1, rucaparib or vehicle Rucaparib, cell line OCI-C5x (clear cell), technical replicate 3 | viability, normalised (%) = 39 (active)
MIER1, rucaparib or vehicle Rucaparib, cell line OCI-P5x (serous), technical replicate 1 | viability, normalised (%) = 53.3 (active)
MIER1, rucaparib or vehicle Rucaparib, cell line OCI-P5x (serous), technical replicate 2 | viability, normalised (%) = 49.1 (active)
MIER1, rucaparib or vehicle Rucaparib, cell line OCI-P5x (serous), technical replicate 3 | viability, normalised (%) = 48.3 (active)
MIER1, rucaparib or vehicle Vehicle, cell line OCI-C5x (clear cell), technical replicate 1 | viability, normalised (%) = 53.3 (active)
MIER1, rucaparib or vehicle Vehicle, cell line OCI-C5x (clear cell), technical replicate 2 | viability, normalised (%) = 49.3 (active)
MIER1, rucaparib or vehicle Vehicle, cell line OCI-C5x (clear cell), technical replicate 3 | viability, normalised (%) = 63.2 (active)
MIER1, rucaparib or vehicle Vehicle, cell line OCI-P5x (serous), technical replicate 1 | viability, normalised (%) = 58.1 (active)
MIER1, rucaparib or vehicle Vehicle, cell line OCI-P5x (serous), technical replicate 2 | viability, normalised (%) = 70.1 (active)
MIER1, rucaparib or vehicle Vehicle, cell line OCI-P5x (serous), technical replicate 3 | viability, normalised (%) = 66.1 (active)
VRK1, rucaparib or vehicle Rucaparib, cell line OCI-C5x (clear cell), technical replicate 1 | viability, normalised (%) = 59.3 (active)
VRK1, rucaparib or vehicle Rucaparib, cell line OCI-C5x (clear cell), technical replicate 2 | viability, normalised (%) = 51.5 (active)
VRK1, rucaparib or vehicle Rucaparib, cell line OCI-C5x (clear cell), technical replicate 3 | viability, normalised (%) = 44.6 (active)
VRK1, rucaparib or vehicle Rucaparib, cell line OCI-P5x (serous), technical replicate 1 | viability, normalised (%) = 113
VRK1, rucaparib or vehicle Rucaparib, cell line OCI-P5x (serous), technical replicate 2 | viability, normalised (%) = 104
VRK1, rucaparib or vehicle Rucaparib, cell line OCI-P5x (serous), technical replicate 3 | viability, normalised (%) = 80.8
VRK1, rucaparib or vehicle Vehicle, cell line OCI-C5x (clear cell), technical replicate 1 | viability, normalised (%) = 59.4 (active)
VRK1, rucaparib or vehicle Vehicle, cell line OCI-C5x (clear cell), technical replicate 2 | viability, normalised (%) = 47.4 (active)
VRK1, rucaparib or vehicle Vehicle, cell line OCI-C5x (clear cell), technical replicate 3 | viability, normalised (%) = 64.8 (active)
VRK1, rucaparib or vehicle Vehicle, cell line OCI-P5x (serous), technical replicate 1 | viability, normalised (%) = 92.5
VRK1, rucaparib or vehicle Vehicle, cell line OCI-P5x (serous), technical replicate 2 | viability, normalised (%) = 89.8
VRK1, rucaparib or vehicle Vehicle, cell line OCI-P5x (serous), technical replicate 3 | viability, normalised (%) = 90.7
